Laboratory results: PubChem BioAssay AID504793 (Drosophila RNAi Screening Center, 2011)

Assay: 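Whole-genome screen for parts of the DNA damage checkpoint at G2/M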 (primary screen)
Cells: Drosophila S2R+ cells
Reagent: long dsRNA against Drosophila genes, about 0.25 µg dsRNA per well
Time to read-out: 4 days of dsRNA, then 4 hours of drug before read-out
Conditions: doxorubicin 0.5 µM for 4 hours to cause double-strand breaks, in cells also given a low, harmless dose of dsRNA against nbs to sensitise the assay
Read-out: 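Mitotic index as the number of phospho-histone H3-positive cells in each well following doxorubicin, given as raw counts without normalisation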
Direction: mitotic cells: higher = more cells in mitosis, weaker G2 arrest
Call rule: 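a call needs confirmation in secondary tests, with other dsRNAs and a check of mitotic timing without damage, not just a high primary count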
Calls: active = confirmed in follow-up tests; inactive = not confirmed
In all, the deposit lists about 23,000 reagents; shown is a random part of those with a known target gene and a result. Over the whole deposit, 62 (0.27%) were called active. 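Calls come from follow-up tests whose scores are not deposited, so confirmed genes may have low counts here; counts are not normalised per plate.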 The raw values are shown without normalisation. Names joined by + are all predicted targets of the reagent.

The opening 9 entries, ahead of the listing:
predicted target | amplicon | mitotic cells, replicate 1 | mitotic cells, replicate 2 | Call
CG2608 | DRSC02709 | 5 | – | inactive
disco-r | DRSC20173 | 12 | – | inactive
disco-r | DRSC20174 | 10 | – | inactive
Nrx-IV | DRSC11238 | 4 | – | inactive
CG5515 | DRSC15825 | 5 | – | inactive
eas | DRSC20329 | 7 | – | inactive
eas | DRSC29435 | 3 | – | inactive
CG15676 | DRSC04267 | 7 | – | inactive
CG15676 | DRSC27015 | 7 | – | inactive

Results, from the start:
predicted target | amplicon | mitotic cells, replicate 1 | mitotic cells, replicate 2 | Call
CG2608 | DRSC02709 | 5 | – | inactive
disco-r | DRSC20173 | 12 | – | inactive
disco-r | DRSC20174 | 10 | – | inactive
Nrx-IV | DRSC11238 | 4 | – | inactive
CG5515 | DRSC15825 | 5 | – | inactive
eas | DRSC20329 | 7 | – | inactive
eas | DRSC29435 | 3 | – | inactive
CG15676 | DRSC04267 | 7 | – | inactive
CG15676 | DRSC27015 | 7 | – | inactive
CG17002 | DRSC04978 | 3 | – | inactive
CG17002 | DRSC27573 | 2 | – | inactive
CG5087 | DRSC10479 | 6 | – | inactive
CG13361 | DRSC17896 | 18 | – | inactive
CG13361 | DRSC29728 | 4 | – | inactive
aop | DRSC22999 | 8 | – | inactive
aop | DRSC25805 | 9 | – | inactive
aop | DRSC39162 | 18 | – | inactive
zye | DRSC11784 | 2 | – | inactive
levy | DRSC04289 | 10 | – | inactive
MnM | DRSC08423 | 4 | – | inactive
Rrp4 | DRSC04434 | 5 | – | inactive
Rrp4 | DRSC29543 | 9 | – | inactive
CG13843 | DRSC14693 | 12 | – | inactive
CG13563 | DRSC22153 | 11 | – | inactive
Obp58b | DRSC04161 | 3 | – | inactive
foi | DRSC10719 | 9 | – | inactive
foi | DRSC29596 | 2 | – | inactive
CG13066 | DRSC09949 | 6 | – | inactive
CG13708 | DRSC08317 | 8 | – | inactive
w | DRSC18850 | 8 | – | inactive
w | DRSC30065 | 5 | – | inactive
Aplip1 | DRSC08697 | 4 | – | inactive
Aplip1 | DRSC21587 | 10 | – | inactive
Aplip1 | DRSC26312 | 7 | – | inactive
Cyp4ad1 | DRSC07369 | 8 | – | inactive
Kpc2 | DRSC07635 | 7 | – | inactive
CG11777 | DRSC06081 | 3 | – | inactive
CG11777 | DRSC26750 | 9 | – | inactive
CG12546 | DRSC11676 | – | – | inactive
CG17801 | DRSC15273 | 12 | – | inactive
Syx4 | DRSC18586 | 15 | – | inactive
Syx4 | DRSC27586 | 7 | – | inactive
gdl-ORF39 + gdl | DRSC11350 | 7 | – | inactive
Eig71Ed | DRSC11151 | 4 | – | inactive
CG31810 | DRSC01560 | 9 | – | inactive
Dnah3 | DRSC08130 | 13 | – | inactive
Dnah3 | DRSC08513 | 11 | – | inactive
Dnah3 | DRSC28789 | 8 | – | inactive
CG5541 | DRSC19946 | 5 | – | inactive
CG11825 | DRSC06090 | 5 | – | inactive
CG11825 | DRSC27780 | 2 | – | inactive
cal1 | DRSC15725 | 8 | – | inactive
babo | DRSC07581 | 6 | – | inactive
Trf4-1 | DRSC17775 | 13 | – | inactive
Ir60a | DRSC04212 | 5 | – | inactive
ect | DRSC10675 | 14 | – | inactive
ect | DRSC11343 | 6 | – | inactive
ect | DRSC22357 | 5 | – | inactive
ect | DRSC27880 | 10 | – | inactive
hmw | DRSC16277 | 4 | – | inactive
CG31709 | DRSC01081 | 16 | – | inactive
CG31709 | DRSC27731 | 2 | – | inactive
Vps50 | DRSC06910 | 9 | – | inactive
CG14826 | DRSC10197 | 4 | – | inactive
CG3594 | DRSC04393 | 4 | – | inactive
CG3594 | DRSC21959 | 12 | – | inactive
Gr98a | DRSC14719 | 6 | – | inactive
CG33217 | DRSC22907 | 12 | – | inactive
CG33217 | DRSC28139 | 9 | – | inactive
grn | DRSC16961 | 8 | – | inactive
grn | DRSC25829 | 3 | – | inactive
CG13360 | DRSC18536 | 15 | – | inactive
CG13360 | DRSC28479 | 4 | – | inactive
psd | DRSC03131 | 1 | – | inactive
psd | DRSC25415 | 1 | – | inactive
CG13041 | DRSC09922 | 2 | – | inactive
CG13041 | DRSC26793 | 4 | – | inactive
Dhc98D | DRSC16645 | 15 | – | inactive
Dhc98D | DRSC27784 | 5 | – | inactive
CG8093 | DRSC07078 | 10 | – | inactive
roh | DRSC04003 | 8 | – | inactive
r-cup | DRSC20475 | 1 | – | inactive
CG31054 (retired record) | DRSC22134 | 10 | – | inactive
CCT4 | DRSC02865 | 89 | – | inactive
CCT4 | DRSC28909 | 7 | – | inactive
CG18635 | DRSC06780 | 8 | – | inactive
CG18635 | DRSC25971 | 12 | – | inactive
SCaMC | DRSC10293 | 10 | – | inactive
SCaMC | DRSC10415 | 7 | – | inactive
SCaMC | DRSC28518 | 4 | – | inactive
Brms1 | DRSC19896 | 13 | – | inactive
geko | DRSC10044 | 5 | – | inactive
geko | DRSC10045 | 9 | – | inactive
mge | DRSC08721 | 7 | – | inactive
GstE4 | DRSC06674 | 9 | – | inactive
GstE4 | DRSC24213 | 6 | – | inactive
Act5C | DRSC17723 | 19 | – | inactive
Act5C | DRSC25024 | 6 | – | inactive
CG8891 | DRSC03120 | 10 | – | inactive
CG8891 | DRSC28308 | 8 | – | inactive
CG8517 | DRSC07205 | 3 | – | inactive
CG12923 | DRSC06237 | 8 | – | inactive
CG31141 | DRSC13646 | 17 | – | inactive
CG31141 | DRSC29508 | 4 | – | inactive
prt | DRSC16894 | 17 | – | inactive
ND-39 | DRSC11791 | 9 | – | inactive
ND-39 | DRSC28392 | 5 | – | inactive
CG9855 | DRSC12344 | 9 | 12 | inactive
CG9855 | DRSC25547 | 7 | – | inactive
CG15483 | DRSC02493 | 4 | – | inactive
Cpr78Ca | DRSC11651 | 5 | – | inactive
prtp | DRSC19804 | 11 | – | inactive
prtp | DRSC22494 | 7 | – | inactive
CG12490 | DRSC04123 | 5 | – | inactive
CG8012 | DRSC10951 | 2 | – | inactive
Brca2 | DRSC04219 | 4 | – | inactive
Brca2 | DRSC04220 | 8 | – | inactive
CG10516 | DRSC09738 | 4 | – | inactive
NimA | DRSC01353 | 8 | – | inactive
NimA | DRSC22170 | 5 | – | inactive
NimA | DRSC28421 | 8 | – | inactive
NimA | DRSC28852 | 5 | – | inactive
sro | DRSC14469 | 8 | 12 | inactive
sro | DRSC27358 | 7 | – | inactive
Mur11Da | DRSC18960 | 4 | – | inactive
Irbp | DRSC17007 | 3 | – | inactive
Irbp | DRSC23317 | 14 | – | inactive
Irbp | DRSC29386 | 3 | – | inactive
bgm | DRSC03495 | 5 | – | inactive
bgm | DRSC27103 | 4 | – | inactive
CG11878 | DRSC14422 | 10 | – | inactive
CG11878 | DRSC24563 | 17 | – | inactive
CG18258 | DRSC19798 | 6 | – | inactive
CG18258 | DRSC29203 | 3 | – | inactive
Plp | DRSC10006 | 2 | – | inactive
Plp | DRSC10333 | 5 | – | inactive
Plp | DRSC10700 | 2 | – | inactive
RpL5 | DRSC03801 | 4 | – | inactive
RpL5 | DRSC29038 | 6 | – | inactive
Lkb1 | DRSC16481 | 11 | – | inactive
